# Data published in the supplement of paper PMC11732987, “Enantioselective OTUD7B fragment discovery through chemoproteomics screening and high-throughput optimisation” (Communications Chemistry, 2025).
# Protein sequences, listed by entry. Tags and fused reporters are not part of them. Lines headed by an entry give the natural chain unless they say otherwise; changes in a name come on top. Residues count along the entry.
# UniProt P19367, 255-274: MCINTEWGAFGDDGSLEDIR
# UniProt O00291: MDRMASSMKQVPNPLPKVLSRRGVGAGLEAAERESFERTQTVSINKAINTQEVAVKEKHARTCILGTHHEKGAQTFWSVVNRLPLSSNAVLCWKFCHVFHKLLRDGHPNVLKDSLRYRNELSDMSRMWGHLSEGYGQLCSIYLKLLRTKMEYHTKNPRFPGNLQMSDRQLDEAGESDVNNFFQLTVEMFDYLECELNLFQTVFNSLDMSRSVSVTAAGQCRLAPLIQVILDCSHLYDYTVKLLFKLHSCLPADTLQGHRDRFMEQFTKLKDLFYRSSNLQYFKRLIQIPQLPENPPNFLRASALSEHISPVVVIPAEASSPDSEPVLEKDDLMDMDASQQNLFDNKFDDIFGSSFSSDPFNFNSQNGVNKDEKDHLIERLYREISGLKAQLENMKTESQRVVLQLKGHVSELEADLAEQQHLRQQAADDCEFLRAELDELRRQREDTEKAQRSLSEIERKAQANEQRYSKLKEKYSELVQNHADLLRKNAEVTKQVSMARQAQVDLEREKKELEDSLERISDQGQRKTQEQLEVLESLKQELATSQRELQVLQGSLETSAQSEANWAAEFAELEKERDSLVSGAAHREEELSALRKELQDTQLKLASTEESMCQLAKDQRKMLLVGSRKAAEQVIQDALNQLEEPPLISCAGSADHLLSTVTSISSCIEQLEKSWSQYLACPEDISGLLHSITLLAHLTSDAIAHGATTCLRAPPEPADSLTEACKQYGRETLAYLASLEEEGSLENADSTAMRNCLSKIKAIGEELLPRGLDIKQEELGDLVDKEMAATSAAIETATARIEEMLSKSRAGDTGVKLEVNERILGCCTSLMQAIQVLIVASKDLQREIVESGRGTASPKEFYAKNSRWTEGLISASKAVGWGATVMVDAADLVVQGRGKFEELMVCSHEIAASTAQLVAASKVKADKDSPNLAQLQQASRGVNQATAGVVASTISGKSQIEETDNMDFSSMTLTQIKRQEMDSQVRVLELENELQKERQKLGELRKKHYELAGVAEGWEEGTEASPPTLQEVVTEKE
# UniProt O75330: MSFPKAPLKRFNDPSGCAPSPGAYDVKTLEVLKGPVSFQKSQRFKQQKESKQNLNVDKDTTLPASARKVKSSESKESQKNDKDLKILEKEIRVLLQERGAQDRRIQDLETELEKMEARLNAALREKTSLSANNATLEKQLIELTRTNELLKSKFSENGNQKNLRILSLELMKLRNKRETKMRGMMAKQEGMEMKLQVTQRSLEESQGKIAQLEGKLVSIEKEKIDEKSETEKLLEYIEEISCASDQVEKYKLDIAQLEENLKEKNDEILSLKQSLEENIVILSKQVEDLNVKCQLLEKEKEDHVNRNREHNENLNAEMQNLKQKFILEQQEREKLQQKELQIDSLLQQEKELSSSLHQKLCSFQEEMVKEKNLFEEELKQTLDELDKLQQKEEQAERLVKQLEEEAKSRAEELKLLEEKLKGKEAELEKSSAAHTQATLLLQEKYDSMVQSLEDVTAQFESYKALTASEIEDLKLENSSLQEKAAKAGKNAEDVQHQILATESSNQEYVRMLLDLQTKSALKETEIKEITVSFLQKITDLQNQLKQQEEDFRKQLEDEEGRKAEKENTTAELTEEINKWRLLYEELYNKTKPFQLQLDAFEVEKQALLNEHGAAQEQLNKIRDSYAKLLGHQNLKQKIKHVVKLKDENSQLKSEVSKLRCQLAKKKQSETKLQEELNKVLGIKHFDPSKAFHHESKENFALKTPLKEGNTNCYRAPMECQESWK
# UniProt Q9P2D3: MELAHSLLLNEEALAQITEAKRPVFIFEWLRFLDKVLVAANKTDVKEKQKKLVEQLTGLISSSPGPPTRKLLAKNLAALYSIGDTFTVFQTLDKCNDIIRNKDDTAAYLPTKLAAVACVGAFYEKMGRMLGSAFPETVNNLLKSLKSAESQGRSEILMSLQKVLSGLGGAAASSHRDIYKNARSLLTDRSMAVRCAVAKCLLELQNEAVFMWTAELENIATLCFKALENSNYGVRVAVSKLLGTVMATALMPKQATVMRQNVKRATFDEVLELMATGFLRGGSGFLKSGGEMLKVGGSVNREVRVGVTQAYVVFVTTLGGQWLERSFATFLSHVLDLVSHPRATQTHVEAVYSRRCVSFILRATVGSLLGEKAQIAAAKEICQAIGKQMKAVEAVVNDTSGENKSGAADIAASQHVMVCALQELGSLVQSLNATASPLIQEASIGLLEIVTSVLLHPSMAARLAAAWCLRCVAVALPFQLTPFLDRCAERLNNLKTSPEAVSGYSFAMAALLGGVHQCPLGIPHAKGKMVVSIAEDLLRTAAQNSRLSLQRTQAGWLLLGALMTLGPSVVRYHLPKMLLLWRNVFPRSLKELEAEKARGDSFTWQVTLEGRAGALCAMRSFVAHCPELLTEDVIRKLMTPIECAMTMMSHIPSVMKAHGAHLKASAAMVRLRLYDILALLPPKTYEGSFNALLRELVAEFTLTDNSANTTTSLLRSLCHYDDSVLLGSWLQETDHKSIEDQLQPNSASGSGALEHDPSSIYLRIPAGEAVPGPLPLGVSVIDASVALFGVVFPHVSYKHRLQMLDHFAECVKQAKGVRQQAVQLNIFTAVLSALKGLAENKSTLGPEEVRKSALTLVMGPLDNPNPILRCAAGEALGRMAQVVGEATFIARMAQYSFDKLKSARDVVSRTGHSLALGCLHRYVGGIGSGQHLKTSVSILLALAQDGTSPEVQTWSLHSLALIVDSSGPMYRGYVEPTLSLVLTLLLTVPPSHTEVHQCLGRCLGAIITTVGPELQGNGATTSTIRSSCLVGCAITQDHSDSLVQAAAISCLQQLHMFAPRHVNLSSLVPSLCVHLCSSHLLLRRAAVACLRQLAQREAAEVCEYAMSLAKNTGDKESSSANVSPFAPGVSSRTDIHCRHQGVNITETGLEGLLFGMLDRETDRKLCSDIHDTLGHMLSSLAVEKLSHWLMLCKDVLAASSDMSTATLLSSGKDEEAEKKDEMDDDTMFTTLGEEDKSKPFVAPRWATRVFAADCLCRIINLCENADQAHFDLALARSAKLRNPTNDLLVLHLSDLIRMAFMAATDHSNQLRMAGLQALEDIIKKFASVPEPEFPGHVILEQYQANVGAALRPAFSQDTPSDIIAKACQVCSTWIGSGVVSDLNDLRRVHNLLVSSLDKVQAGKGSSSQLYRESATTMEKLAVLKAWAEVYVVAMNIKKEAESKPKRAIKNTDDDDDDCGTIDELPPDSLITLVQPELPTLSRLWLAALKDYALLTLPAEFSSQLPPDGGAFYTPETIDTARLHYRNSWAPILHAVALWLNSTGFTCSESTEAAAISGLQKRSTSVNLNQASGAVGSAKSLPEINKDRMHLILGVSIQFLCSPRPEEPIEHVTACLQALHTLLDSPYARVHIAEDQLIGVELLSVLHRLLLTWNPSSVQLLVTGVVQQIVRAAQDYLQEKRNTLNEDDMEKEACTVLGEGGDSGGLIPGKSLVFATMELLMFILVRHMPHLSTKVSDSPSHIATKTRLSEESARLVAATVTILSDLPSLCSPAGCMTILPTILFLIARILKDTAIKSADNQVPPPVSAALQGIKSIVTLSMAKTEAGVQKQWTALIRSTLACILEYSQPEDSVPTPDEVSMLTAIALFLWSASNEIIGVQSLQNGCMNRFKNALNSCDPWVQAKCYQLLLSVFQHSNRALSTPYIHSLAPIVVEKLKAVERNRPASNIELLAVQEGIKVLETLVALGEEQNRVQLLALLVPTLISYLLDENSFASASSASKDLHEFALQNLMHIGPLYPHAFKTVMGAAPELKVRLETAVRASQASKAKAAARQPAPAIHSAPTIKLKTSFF
# UniProt P56524: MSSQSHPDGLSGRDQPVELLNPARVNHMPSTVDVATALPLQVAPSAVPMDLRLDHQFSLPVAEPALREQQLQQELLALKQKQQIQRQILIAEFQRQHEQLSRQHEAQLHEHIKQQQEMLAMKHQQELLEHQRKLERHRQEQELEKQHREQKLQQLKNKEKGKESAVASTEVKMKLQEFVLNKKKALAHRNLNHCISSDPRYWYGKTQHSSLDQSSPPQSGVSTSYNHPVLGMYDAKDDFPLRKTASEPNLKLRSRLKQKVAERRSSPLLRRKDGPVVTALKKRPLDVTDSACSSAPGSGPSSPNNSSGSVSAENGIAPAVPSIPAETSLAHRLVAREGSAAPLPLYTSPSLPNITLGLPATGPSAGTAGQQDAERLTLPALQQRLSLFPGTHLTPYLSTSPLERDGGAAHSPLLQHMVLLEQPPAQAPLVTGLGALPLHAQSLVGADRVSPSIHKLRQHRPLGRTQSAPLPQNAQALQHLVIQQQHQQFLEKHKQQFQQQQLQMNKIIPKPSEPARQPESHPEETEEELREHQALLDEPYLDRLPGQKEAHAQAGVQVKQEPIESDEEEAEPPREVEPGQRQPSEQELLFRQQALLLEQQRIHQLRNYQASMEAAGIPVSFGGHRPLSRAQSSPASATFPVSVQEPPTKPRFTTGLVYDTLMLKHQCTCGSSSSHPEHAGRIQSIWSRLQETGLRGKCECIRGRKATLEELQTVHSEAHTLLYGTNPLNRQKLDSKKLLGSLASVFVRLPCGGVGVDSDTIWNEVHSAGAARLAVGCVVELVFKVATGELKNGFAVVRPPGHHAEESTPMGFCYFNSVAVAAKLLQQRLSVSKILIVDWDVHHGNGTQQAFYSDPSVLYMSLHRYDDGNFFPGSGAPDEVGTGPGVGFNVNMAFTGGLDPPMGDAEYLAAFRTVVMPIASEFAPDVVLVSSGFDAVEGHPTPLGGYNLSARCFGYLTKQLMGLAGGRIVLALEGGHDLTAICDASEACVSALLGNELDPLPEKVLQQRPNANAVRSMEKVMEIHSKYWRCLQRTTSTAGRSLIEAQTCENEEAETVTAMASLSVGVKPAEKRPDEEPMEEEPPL
# UniProt P29083: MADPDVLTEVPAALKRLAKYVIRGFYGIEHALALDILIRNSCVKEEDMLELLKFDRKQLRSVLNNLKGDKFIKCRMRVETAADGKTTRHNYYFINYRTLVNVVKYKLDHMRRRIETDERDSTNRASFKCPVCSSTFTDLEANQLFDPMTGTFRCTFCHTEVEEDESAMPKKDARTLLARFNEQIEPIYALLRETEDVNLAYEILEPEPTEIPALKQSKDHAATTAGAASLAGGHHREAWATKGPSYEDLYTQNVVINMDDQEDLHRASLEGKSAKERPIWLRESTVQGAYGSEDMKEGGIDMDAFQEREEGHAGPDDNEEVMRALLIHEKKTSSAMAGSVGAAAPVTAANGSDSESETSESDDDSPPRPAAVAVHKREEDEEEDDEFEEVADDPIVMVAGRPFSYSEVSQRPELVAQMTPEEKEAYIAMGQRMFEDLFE
# UniProt Q8NCD3, whole entry, looked up: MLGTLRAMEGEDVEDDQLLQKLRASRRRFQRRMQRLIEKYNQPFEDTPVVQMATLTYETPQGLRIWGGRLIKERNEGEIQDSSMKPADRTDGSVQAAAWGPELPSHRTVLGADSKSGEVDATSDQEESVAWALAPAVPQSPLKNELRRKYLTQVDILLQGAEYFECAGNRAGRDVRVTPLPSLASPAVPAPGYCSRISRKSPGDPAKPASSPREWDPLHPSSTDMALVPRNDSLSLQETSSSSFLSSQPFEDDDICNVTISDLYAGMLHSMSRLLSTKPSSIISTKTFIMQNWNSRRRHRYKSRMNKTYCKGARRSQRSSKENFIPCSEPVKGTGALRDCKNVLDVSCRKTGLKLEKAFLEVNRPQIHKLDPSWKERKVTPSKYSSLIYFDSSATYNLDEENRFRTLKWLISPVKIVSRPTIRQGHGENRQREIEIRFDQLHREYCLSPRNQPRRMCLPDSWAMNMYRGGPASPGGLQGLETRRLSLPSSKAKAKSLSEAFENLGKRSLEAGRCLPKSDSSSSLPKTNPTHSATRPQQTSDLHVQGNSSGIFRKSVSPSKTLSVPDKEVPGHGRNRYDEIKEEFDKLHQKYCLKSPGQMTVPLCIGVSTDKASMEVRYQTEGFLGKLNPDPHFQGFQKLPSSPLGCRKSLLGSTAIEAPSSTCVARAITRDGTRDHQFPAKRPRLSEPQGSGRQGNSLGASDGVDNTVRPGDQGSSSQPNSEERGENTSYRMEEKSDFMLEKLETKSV
# UniProt P22626: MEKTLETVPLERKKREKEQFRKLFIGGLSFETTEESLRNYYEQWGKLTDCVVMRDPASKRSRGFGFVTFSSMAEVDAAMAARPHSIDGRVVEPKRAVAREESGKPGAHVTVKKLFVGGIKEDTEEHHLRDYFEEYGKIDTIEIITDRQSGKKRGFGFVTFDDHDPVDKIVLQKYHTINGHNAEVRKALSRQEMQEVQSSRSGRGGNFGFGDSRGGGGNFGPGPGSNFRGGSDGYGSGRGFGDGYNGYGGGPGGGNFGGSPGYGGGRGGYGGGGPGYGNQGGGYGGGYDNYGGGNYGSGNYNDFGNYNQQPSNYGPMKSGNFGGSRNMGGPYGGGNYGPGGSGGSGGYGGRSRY
# The list shows a part of the results. The data scatter; read single values as rough.
# Compound: ClCC(=O)N[C@H]1CCCc2ccccc12
# Assay: log2 mean competition ratio of IA-DTB cysteine labelling (DMSO/compound) (log2 ratio); higher = stronger cysteine engagement by compound
# Details: 50 µM; treatment time: 4 h; cell line lysate: HEK293T
# Description: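 IA-DTB competitive cysteine chemoproteomics in HEK293T RIPA lysate. Lysates were treated with compound 29 or 30 at 50 or 200 µM for 4 h, then IA-DTB (500 µM, 1 h), trypsin-digested, NeutrAvidin-enriched and analysed by diaPASEF. Competition ratio = intensity DMSO / intensity compound (n=4 treated, n=64 DMSO); binding: mean log2 CR ≥ 1 and p ≤ 0.05 plus QC filters. Target is the cysteine site.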
row,Target,log2 mean competition ratio
1,HK1 C834 (UniProt P19367),-0.13
2,HAPLN3 C233,0.259
3,HIP1 C63 (UniProt O00291),0.272
4,GTF3C1 C179 (UniProt Q12789),-0.403
5,HMMR C712 (UniProt O75330),0.122
6,HEATR5B C870 (UniProt Q9P2D3),0.134
7,HK1 C256 (UniProt P19367),-0.27
8,HCFC1 C1872 (UniProt P51610),0.603
9,HOXB13 C211,-0.122
10,HECTD1 C1995 (UniProt Q9ULT8),-0.308

# Same assay, conditions: 200 µM; treatment time: 4 h; cell line lysate: HEK293T
row,Target,log2 mean competition ratio
1,HK2 C813 (UniProt P52789),0.0593
2,GTF3C4 C174 (UniProt Q9UKN8),-0.0348
3,HIP1R C650 (UniProt O75146),0.244
4,HDDC3 C133 (UniProt Q8N4P3),-0.167
5,HELLS C836 (UniProt Q9NRZ9),0.17
6,HNRNPD C126,-0.147
7,HNRNPUL2 C308 (UniProt Q1KMD3),-0.152
8,HDAC4 C194 (UniProt P56524),0.42
9,GTF2E1 C42 (UniProt P29083),0.187
10,HECTD4 C1084,0.0376
11,HECTD1 C369 (UniProt Q9ULT8),0.538
12,HJURP C327 (UniProt Q8NCD3),-0.317
13,HERC1 C1941 (UniProt Q15751),0.323
14,HABP4 C236 (UniProt Q5JVS0),0.0135
15,HAUS5 C446 (UniProt O94927),0.259
16,HNRNPA2B1 C50 (UniProt P22626),-0.363
17,HEATR5B C625 (UniProt Q9P2D3),0.0278
18,HAUS1 C156 (UniProt Q96CS2),-0.122

# Quoted from the listing.
# For log2 mean competition ratio, HECTD4 C1084 is listed with 0.0376
# For log2 mean competition ratio, HAUS5 C446 (UniProt O94927) is listed with 0.259
